{
  "source": "PubChem BioAssay AID540276",
  "about": "(National Center for Advancing Translational Sciences (NCATS), 2011)",
  "note": "About 5,400 (1.8%) of roughly 300,000 compounds were called active. The inconclusive results got no clear call from the source; some entries with a clear call stand among them for comparison. Calls follow the shape of the full dose curve; tested in HEK293 cells. A potency beside an inconclusive call is a rough fit, not a confirmed value. % is scaled to controls: 0 for no effect and ±100 for the full control effect; potency is read from the fitted curve at half-maximal effect.",
  "data": [
    {"experiment": "qHTS for inhibitors of binding or entry into cells for Marburg Virus", "conditions": "Marburg virus pseudotyped entry inhibition, cell reporter; activity change, negative = inhibition: at 37.8 µM (top of the series) unless noted", "values": [
      {"smiles": "CCOc1ccc(/C=C/c2nc(C#N)c(NCCc3ccccc3)o2)cc1", "Potency": "inconclusive: 6.31 µM [inhibitor, full curve, poor fit]"},
      {"smiles": "CCOC(=O)C1=C(COC(=O)C(C)(C)Oc2ccc(Cl)cc2)NC(=O)NC1C", "note": "(centres undefined)", "Potency": "inconclusive: 35.5 µM [activator, single point]"},
      {"smiles": "CC1CC(C)CN(CCCCOc2ccc([N+](=O)[O-])cc2)C1", "note": "(centres undefined)", "Potency": "inconclusive: 11.2 µM [inhibitor, single point]"},
      {"smiles": "COc1ccc(Cl)cc1C(=O)C1CCCN(Cc2cnc(N3CCOCC3)s2)C1", "note": "(centres undefined)", "Potency": "inconclusive: 10 µM [inhibitor, partial curve]"},
      {"smiles": "COc1cc([C@H]2[C@@H]3CCCC[C@]3(O)CCN2Cc2ccccc2F)ccc1O", "Potency": "inconclusive: 9.2 µM [inhibitor, partial curve]"},
      {"smiles": "O=S(=O)(Nc1cccc(-c2ccc(N3CCCCCC3)nn2)c1)c1ccc(C(F)(F)F)cc1", "Potency": "inconclusive: 3.16 µM [activator, single point]"},
      {"smiles": "Cc1cccc2nc(CSc3nnc(N)s3)cn12", "activity change, negative = inhibition": "inactive: 0.193% [at 46.1 µM]"},
      {"smiles": "O=S1(=O)C=C(Sc2nnc(-c3ccccc3)o2)c2ccccc21", "Potency": "active: 5.8 µM"},
      {"smiles": "CCCCc1cc(=O)oc2cc(OCC(=O)N(CC)CC)ccc12", "Potency": "inconclusive: 0.82 µM [activator, full curve, poor fit]"},
      {"smiles": "Cc1onc(C(=O)NN)c1C(=O)N1CCN(C(c2ccccc2)c2ccccc2)CC1", "Potency": "inconclusive: 2.82 µM [inhibitor, full curve, poor fit]"},
      {"smiles": "Cc1ccc(NCCC(=O)c2cccs2)cc1Cl", "Potency": "inconclusive: 11.2 µM [activator, partial curve, poor fit]"},
      {"smiles": "CSc1nc2sc3c(c2c(=O)n1-c1ccccc1)CCC(C(C)(C)C)C3", "note": "(centres undefined)", "activity change, negative = inhibition": "inactive: -1.63% [at 46.1 µM]"},
      {"smiles": "Cc1ccc(OCC(=O)N(Cc2ccc(N(C)C)cc2)C2CCS(=O)(=O)C2)cc1C", "note": "(centres undefined)", "Potency": "inconclusive: 2.82 µM [activator, single point]"},
      {"smiles": "O=S(=O)(c1ccc2c(c1)OCCO2)N1CCN(c2ncnc3sccc23)CC1", "Potency": "inconclusive: 0.461 µM [inhibitor, full curve, poor fit]"},
      {"smiles": "O=C(O)c1ccc(Cn2c(=S)[nH]c3cc(Cl)ccc3c2=O)cc1", "activity change, negative = inhibition": "inactive: -16.6% [at 46.1 µM]"},
      {"smiles": "COc1ccc(C(=O)NCC(=O)N/N=C/c2ccco2)cc1OC", "activity change, negative = inhibition": "inactive: -21.3% [at 46.1 µM]"},
      {"smiles": "COC(=O)c1ccc(NC(C(=O)OC)C(C)C)c([N+](=O)[O-])c1", "note": "(centres undefined)", "activity change, negative = inhibition": "inactive: -12.9%"},
      {"smiles": "N#Cc1cc([N+](=O)[O-])ccc1Oc1cccc(/C=N/NC(=O)c2cccc(Cl)c2)c1", "Potency": "inconclusive: 9.2 µM [inhibitor, partial curve, poor fit]"},
      {"smiles": "Cc1cc2ccccn2c1C(=O)Nc1ccccc1", "Potency": "inconclusive: 7.08 µM [activator, partial curve, poor fit]"},
      {"smiles": "O=C(c1ccco1)N1N=C(c2ccc(Br)cc2)CC1(O)C(F)(F)F", "note": "(centres undefined)", "Potency": "active: 10 µM"},
      {"smiles": "CC[N+]1(C)CCC(O)(/C=C/c2ccccc2)C(C(=O)/C=C/c2ccccc2)C1", "note": "(centres undefined)", "Potency": "inconclusive: 14.1 µM [inhibitor, partial curve, poor fit]"},
      {"smiles": "COc1cnc(-c2ccccn2)[nH]c1=O", "Potency": "inconclusive: 0.562 µM [activator, full curve, poor fit]"},
      {"smiles": "CCOC(=O)c1sc(/N=C/C2=C(O)CC(C)(C)CC2=O)c(C(=O)OCC)c1C", "Potency": "inconclusive: 15.8 µM [activator, single point]"},
      {"smiles": "CC1(C)Cc2c(ccc3ccccc23)C2=C(C(=O)N3CCCC3)C(=O)C(=O)N21", "Potency": "inconclusive: 4.47 µM [inhibitor, full curve, poor fit]"},
      {"smiles": "COc1cccc(C2CC(c3ccccc3Cl)n3nc(N)nc3N2)c1", "note": "(centres undefined)", "Potency": "inconclusive: 16.4 µM [inhibitor, single point]"},
      {"smiles": "N#Cc1c2n(c3c(=O)n(Cc4ccccc4Cl)cnc13)CCCC2", "Potency": "inconclusive: 2.31 µM [inhibitor, partial curve, poor fit]"},
      {"smiles": "COc1ccc(O[C@H]2C=C[C@@H](c3ccccc3)O[C@H]2CON=C(C)CCN2CCCCc3nc(C)c(C)cc32)cc1", "Potency": "inconclusive: 0.944 µM [activator, full curve]"},
      {"smiles": "COC(=O)c1c(N2C(=O)[C@H]3[C@@H](C2=O)[C@]2(C(=O)Nc4c(C)cc(C)cc42)N2CCC[C@@H]32)sc(C)c1C", "Potency": "inconclusive: 10 µM [inhibitor, partial curve, poor fit]"},
      {"smiles": "CCn1nnnc1-c1ccc(OC)c(S(=O)(=O)NCCc2ccccc2)c1", "Potency": "inconclusive: 0.58 µM [inhibitor, single point]"},
      {"smiles": "CSCC[C@H](NC(=O)c1ccc(Cl)c([N+](=O)[O-])c1)c1nc2ccccc2[nH]1", "Potency": "active: 10 µM"},
      {"smiles": "O=C(CCCCn1c(=O)c2ccccc2n(CC(=O)Nc2cccc(F)c2)c1=O)NCCc1ccccc1", "Potency": "inconclusive: 12.6 µM [inhibitor, partial curve, poor fit]"},
      {"smiles": "O=C(CSc1nncc(=O)[nH]1)NC1CCCCC1", "activity change, negative = inhibition": "inactive: 8.15% [at 46.1 µM]"},
      {"smiles": "CCCn1c(SCC(=O)NCc2ccco2)nnc1-c1ccncc1", "activity change, negative = inhibition": "inactive: -14.5% [at 46.1 µM]"},
      {"smiles": "O=C(NC1CC2CCCC(C1)N2C(=S)Nc1ccccc1)C1CC1", "note": "(centres undefined)", "activity change, negative = inhibition": "inactive: 2.62% [at 46.1 µM]"},
      {"smiles": "COc1ccc(CNc2ncnc3cc(Cl)ccc23)cc1", "Potency": "inconclusive: 0.794 µM [inhibitor, full curve, poor fit]"},
      {"smiles": "CC1(C)C(c2ccccc2)=NC(c2ccc(Br)cc2)N1O", "note": "(centres undefined)", "Potency": "inconclusive: 5.62 µM [inhibitor, partial curve, poor fit]"},
      {"smiles": "COC(=O)C1=C(C(=O)OC)SC2(S1)C(C(=O)OC)=C(C(=O)OC)SC1=C2c2cc(C)cc(C)c2NC1(C)C", "activity change, negative = inhibition": "inactive: 13.6%"},
      {"smiles": "CC(=O)NCCC(Cc1ccccc1)c1ccco1", "note": "(centres undefined)", "Potency": "inconclusive: 12.6 µM [activator, single point]"},
      {"smiles": "c1ccc(-c2cc(-c3ccncc3)nc3ccc4ccccc4c23)cc1", "Potency": "inconclusive: 35.5 µM [inhibitor, single point]"},
      {"smiles": "COc1ccccc1OCc1ccc(C(=O)NN)cc1", "Potency": "inconclusive: 1 µM [activator, single point]"},
      {"smiles": "Nc1ccc(/C=C/C(=O)c2cccs2)cc1", "Potency": "inconclusive: 1 µM [activator, full curve, poor fit]"},
      {"smiles": "CN1C(C(=O)Nc2ccc(OC(F)(F)F)cc2)=CC(c2ccco2)=NS1(=O)=O", "Potency": "inconclusive: 20 µM [inhibitor, single point]"},
      {"smiles": "COc1ccccc1-c1cc(C(F)(F)F)nc(N2CCCC2)n1", "activity change, negative = inhibition": "inactive: -1.92%"},
      {"smiles": "C=CCn1c(SCCOc2ccc(OC)cc2)nnc1C(C)NC(=O)c1ccc(OC)cc1", "note": "(centres undefined)", "activity change, negative = inhibition": "inactive: -4.04%"},
      {"smiles": "COc1ccccc1-c1noc(-c2ccc(NC(C)C)c([N+](=O)[O-])c2)n1", "activity change, negative = inhibition": "inactive: 0.446% [at 46.1 µM]"},
      {"smiles": "COc1ccc(-n2cc(C(=O)c3ccc4ccccc4c3O)cn2)cc1", "activity change, negative = inhibition": "inactive: -9.48% [at 46.1 µM]"},
      {"smiles": "O=C(COC(=O)CCc1c[nH]c2ccccc12)NC1CCS(=O)(=O)C1", "note": "(centres undefined)", "Potency": "inconclusive: 0.164 µM [inhibitor, full curve, poor fit]"},
      {"smiles": "COC(=O)Cn1cnc2c(cnn2-c2ccc(OC)cc2)c1=O", "activity change, negative = inhibition": "inactive: 8.51% [at 46.1 µM]"},
      {"smiles": "COc1ccccc1N1CCN(C(=O)CN2C(=O)c3cccc4cccc(c34)C2=O)CC1", "Potency": "inconclusive: 15.8 µM [inhibitor, single point]"},
      {"smiles": "O=c1c2ccccc2nc2c3ccccc3c(NCc3ccccn3)nn12", "Potency": "inconclusive: 7.08 µM [inhibitor, full curve]"},
      {"smiles": "CCC(=O)Nc1ccc(C(=O)NCc2ccccn2)cc1", "activity change, negative = inhibition": "inactive: -5.58%"},
      {"smiles": "O=C(CCC(=O)Nc1ccccc1)N/N=C/c1ccc2c(c1)OCO2", "activity change, negative = inhibition": "inactive: 19.4% [at 46.1 µM]"},
      {"smiles": "COc1ccc(Cl)cc1NC(=O)CSC1=Nc2ccccc2C2=NC(CC(=O)NCc3cccs3)C(=O)N12", "note": "(centres undefined)", "Potency": "inconclusive: 6.31 µM [inhibitor, single point]"},
      {"smiles": "Cc1cc(C)n(Cc2ccc(NC(=O)c3nn(C)cc3[N+](=O)[O-])cc2)n1", "activity change, negative = inhibition": "inactive: -11.9%"},
      {"smiles": "Cc1nn2cc(-c3ccc(-c4ccccc4)cc3)nc2s1", "Potency": "inconclusive: 10 µM [inhibitor, single point]"},
      {"smiles": "Cc1nc(Nc2ccc(S(=O)(=O)N3CCCC3)cc2)c2nnn(Cc3ccccc3)c2n1", "Potency": "inconclusive: 17.8 µM [inhibitor, partial curve, poor fit]"},
      {"smiles": "COc1ccc(CNC(C)C(=O)Nc2ccc3ccccc3c2)cc1OC", "note": "(centres undefined)", "Potency": "inconclusive: 35.5 µM [inhibitor, single point]"},
      {"smiles": "COC(=O)COc1ccc(S(=O)(=O)Nc2ccc3c(c2)OCO3)cc1", "activity change, negative = inhibition": "inactive: -1.62%"},
      {"smiles": "N#CC1=C2Sc3ccccc3N2CCCC1=O", "activity change, negative = inhibition": "inactive: 11.6%"},
      {"smiles": "COc1cc2cc(CN(CCCN3CCOCC3)C(=O)Nc3ccccc3F)c(=O)[nH]c2cc1OC", "Potency": "inconclusive: 35.5 µM [inhibitor, single point]"},
      {"smiles": "c1ccc(-c2nc(-c3ccccc3)c(Nc3ccc4ccccc4c3)o2)cc1", "Potency": "inconclusive: 0.266 µM [activator, full curve, poor fit]"},
      {"smiles": "O=c1[nH]c(=O)n(-c2ccc(Br)cc2)c(O)c1C=NC(CO)(CO)CO", "Potency": "inconclusive: 2.82 µM [activator, partial curve]"},
      {"smiles": "COc1ccc(C(=O)O/N=C(\\N)Cc2ccc(Cl)c(Cl)c2)cc1OC", "Potency": "inconclusive: 12.6 µM [inhibitor, single point]"},
      {"smiles": "CC(=O)Nc1ccc(C(=O)/C=C/c2ccc[nH]2)cc1", "activity change, negative = inhibition": "inactive: 18% [at 46.1 µM]"},
      {"smiles": "COCCN(C(=O)CN1CCCc2ccccc21)c1c(N)n(Cc2ccccc2)c(=O)[nH]c1=O", "activity change, negative = inhibition": "inactive: 26.2%"},
      {"smiles": "COP(=O)(OC)c1nc(-c2cccc3ccccc23)oc1NCc1ccccc1", "Potency": "inconclusive: 12.6 µM [inhibitor, partial curve, poor fit]"},
      {"smiles": "O=C(COc1ccc(F)cc1)Nc1cc(Cl)ccc1-n1cncn1", "activity change, negative = inhibition": "inactive: 31.9%"},
      {"smiles": "c1ccc2c3c(cc(N4CCOCC4)c2c1)OC1(N2CCOCC2)CCCCC1O3", "note": "(centres undefined)", "activity change, negative = inhibition": "inactive: 0.334%"},
      {"smiles": "Cc1ccccc1N(CC(=O)NCCc1ccccc1)C(=O)CCC(=O)Nc1ccccn1", "Potency": "inconclusive: 0.631 µM [inhibitor, full curve, poor fit]"}
    ]}
  ]
}
